These results are taken from PMC10163288.

B1: il2ra_site1_2b5i_sap_13_mot_HHH_b1_02271_000000068_0001_1_16_H_._938bed80e497fa1066727820926b3ec2_0001_af2_0001_0000200006_0000001_0_0001 (protein)
chain: SSSSSREAMKELVRWVLRLKWRLGLSDEAMKELAQLASELLEKGISPEEAKEILRERAEELSSSS
B2: il2ra_site1_1z92_normal_mot_HHH_b1_07526_000000113_0001_40_57_H_._HHH_b1_06581_af2_0001_0000200038_0000001_0_af2pred_0001_af2pred_1 (protein)
chain: SSSSDLEEEAQKIVEELVEELNLSEKQEKNLRRLAKAAVELGADEEEIERLLRLFAELALSSSSS
B3: il2ra_site1_2b5i_normal_mot_0e5a94e4a5addaac739760efb25f0f5d_0001_000000246_0001_18_32_H_._cf88cf85650e0ae85d215619de225a54_0001_0001_0000300012_0000001_0_af2pr … (protein)
chain: DEEKEERVRKRAKRNPRDALVLAIFIARKKGDEELTEKLEELAELLLRGEVPPEELVELALELLR
B4: il2ra_site2_2erj_sap_17_mot_HHH_b1_05944_000000102_0001_38_56_H_._HHH_b2_07088_0001_0000300019_0000001_0_0001 (protein)
chain: SSSSSDKLREAYELAVEVMRLLSEGDEEEAERLAEEVERLLEELGTPDAAELLRELLRINSSSSS
B5: il2ra_site2_3nfp_sap_15_mot_HHH_b1_04996_000000161_0001_40_54_H_._HHH_b2_06317_0001_0000300055_0000001_1_0001 (protein)
chain: SSSSSDKEEVEELLREAERLLEEGNPEEAEQAVLRAAHLAWELNDFEAYMKVAELAFRIASSSSS
B6: il2ra_site2_3nfp_sap_15_mot_HHH_b2_07840_000000026_0001_18_34_H_._HHH_b2_05131_0001_0000700021_0000001_0_0001 (protein)
chain: SSSSDEEEKRVQELIEEIERLLEEGDRWEAAQLLLEASELAARINNEELARKLLELFRLIQSSSS
B7: il2ra_site1_3nfp_normal_mot_HHH_b1_04931_000000291_0001_38_56_H_._HHH_b2_03644_0001_0000700031_0000001_0_af2pred_0001_af2pred (protein)
chain: SSSSSDEEDEEEVKRLLEEAKRIEDPREANEVLREALKIAKEAGDPELYKLVLKVLRELASSSSS
B8: il2ra_site1_2b5i_normal_mot_HHH_b2_04910_000000118_0001_1_19_H_._HHH_b2_06441_af2_0001_0000100003_0000001_0_af2pred_dldesign_0_af2pred (protein)
chain: SSSSSSPAEEARRLFYKANELYQAGKYEEAKAALEEALRLARELGSRSLTRLIELALASLSSSSS
B9: il2ra_site2_3nfp_normal_mot_HHH_b1_05627_af2_000000038_0001_43_56_H_._HHH_b1_00019_0001_0000600019_0000001_1 (protein)
chain: SSSSKAEEYVEAAILIARLALEQGDPESARSSLHAAELLARAIRDPELVRLVEELEEELNSSSSS
B10: il2ra_site2_3nfp_sap_19_mot_HHH_b1_06613_af2_000000098_0001_23_40_H_._HHH_b2_05595_af2_0001_0000400018_0000001_0_0001_af2pred_0001_af2pred (protein)
chain: SSSSSSDVEELLEQAERLLEEGNEEEAEQVLLRAAAAAAERNDFETYAEVADLYRRLKSSSSSSS
B11: il2ra_site2_3nfp_sap_6_mot_HHH_b2_00747_000000224_0001_22_38_H_._HHH_b2_08216_0001_0000300016_0000001_0_0001 (protein)
chain: SSSSSWERLLRLALEALRAASRQRDDEWFEKSFEYIRAAVELWNDEEAREELEEIEEKFEGSSSS
B12: il2ra_site1_2b5i_normal_mot_HHH_b2_04910_000000118_0001_1_19_H_._HHH_b1_03473_0001_0000100004_0000001_0_af2pred_0001_af2pred_1 (protein)
chain: SSSSSEELMEALELADKLVKNGDPEEARRVLEEALKEAEELGNRSIIKILRSALRLIELMESSSS
B13: il2ra_site2_2erj_normal_mot_HHH_b1_02757_000000121_0001_41_57_H_._HHH_b1_03035_0001_0000500018_0000001_0_af2pred_0001_af2pred (protein)
chain: SSSSSSDEEEEKVEELLEEAEHITDRREALRVLQEADEIAAENDNEELLELIEEWYKRLSSSSSS
B14: il2ra_site2_2erj_normal_mot_HHH_b1_05204_000000269_0001_1_15_H_._HHH_b1_00954_0001_0000200014_0000001_0_1_af2pred_0001_af2pred (protein)
chain: SSSSDLEEELRRLLEELEELVKEGDEKKFMEVALRVAKLVIENNDEEAAKLLLRLLRELRSSSSS
B15: il2ra_site2_2erj_normal_mot_b51ef6c5904a99cec739238a0ecf354a_0001_af2_000000238_0001_35_49_H_._HHH_b1_05977_0001_0000400024_0000001_0 (protein)
chain: SSSSLEESFELLEELFERLNKLIEKNDEEEFERVLEELRKLAERFESPIVRDAIELLELQHSSSS
B16: il2ra_site1_3nfp_normal_mot_HHH_b2_03135_af2_000000097_0001_42_55_H_._HHH_b1_08375_0001_0000300023_0000001_0 (protein)
chain: SSSSDHELSRLAQEAWKLLREGDLEEAEEVLREAEQLARELNDKIALKLVEQLLEALERRGSSSS
B17: il2ra_site1_1z92_sap_16_mot_9b3351f2f66fbcc824ad33b4da01f8ef_0001_af2_000000012_0001_16_32_H_._HHH_b1_01088_0001_0000300029_0000001_0_0001 (protein)
chain: SSSSSREERALEWALELLKSAVRLGNQERAEFVTRDIEMIARRLNDEEVLEEAEELLRRLTSSSS
B18: il2ra_site1_1z92_sap_8_mot_HHH_b1_03465_af2_000000044_0001_40_52_H_._HHH_b2_03045_0001_0000300027_0000001_0_0001 (protein)
chain: SSSSDEELRQVVKELVEEYNLSEAAEKVLERLVKMDEELGVSEESAKEALEKAAELFHRLQSSSS
B19: il2ra_site2_3nfp_sap_25_mot_HHH_b1_06715_000000068_0001_21_38_H_._ad6158629c6fd226c14646e2effd3054_0001_1_af2_0001_0000300021_0000001_1_0001 (protein)
chain: SSSSDEREEEIRELLEEAKRIEDPEEAARAVSRAAALAAELQDFELFALAAELRYKLIRDSSSSS

The other results are listed elsewhere or left out.

For the experiment, the target named is il2ra, P01589. The experiment can be described thus: yeast display titration.
In the case of B1, the “apparent Kd” value was “inactive: no binding seen”. In the case of B2, the “apparent Kd” value is “inactive: no binding seen”. With B3, the “apparent Kd” value is “inactive: no binding seen”. For the molecule B4, the “apparent Kd” value is “inactive: no binding seen”.

For B5, the “apparent Kd” value is “inactive: no binding seen”.

In the case of B6, the “apparent Kd” value is “inactive: no binding seen”. The entry for B7 is “inactive: no binding seen”; for B8 it is “inactive: no binding seen”.

For B9, the “apparent Kd” value is “inactive: no binding seen”. Regarding B10, the “apparent Kd” value is “inactive: no binding seen”. On to B11, for which the “apparent Kd” value is “inactive: no binding seen”. Regarding B12, the “apparent Kd” value was “inactive: no binding seen”. For the molecule B13, the “apparent Kd” value is “inactive: no binding seen”. Turning to B14, the “apparent Kd” value was “inactive: no binding seen”. For the molecule B15, the “apparent Kd” value was “inactive: no binding seen”. Consider B16, for which the “apparent Kd” value is “inactive: no binding seen”. For the molecule B17, the “apparent Kd” value is “inactive: no binding seen”. Consider B18, for which the “apparent Kd” value is “inactive: no binding seen”. With B19 the entry was “inactive: no binding seen”.
